# In the supplement of paper PMC6411743:
# ± gives the standard deviation of the averaged measurements. The list shows a part of the results.
# Target: T1, UAP1L1 (UniProt Q3KQV9)
# T1 sequence (whole entry): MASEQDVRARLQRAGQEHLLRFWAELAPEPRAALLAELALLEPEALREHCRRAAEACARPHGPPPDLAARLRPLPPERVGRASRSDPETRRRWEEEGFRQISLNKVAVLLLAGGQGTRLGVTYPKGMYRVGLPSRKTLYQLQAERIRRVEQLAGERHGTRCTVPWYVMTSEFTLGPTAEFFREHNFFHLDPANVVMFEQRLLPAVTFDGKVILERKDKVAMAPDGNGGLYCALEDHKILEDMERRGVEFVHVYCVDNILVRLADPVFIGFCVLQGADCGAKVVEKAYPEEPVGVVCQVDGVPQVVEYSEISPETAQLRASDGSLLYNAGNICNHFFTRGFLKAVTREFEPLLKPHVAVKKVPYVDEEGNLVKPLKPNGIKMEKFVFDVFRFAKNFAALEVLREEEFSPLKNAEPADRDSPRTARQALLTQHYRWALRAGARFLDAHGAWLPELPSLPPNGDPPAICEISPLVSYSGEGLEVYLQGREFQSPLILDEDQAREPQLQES
# Experiment: NP40-soluble protein abundance relative to vehicle (solubility fold change) (ratio); higher = more soluble protein in presence of GTP
# Protocol: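 Solubility proteome profiling in Jurkat crude lysate. Lysate was treated with Mg-GTP (0.1-10 mM) for 10 min at room temperature and 3 min at 37 °C, then solubilised with 0.8% NP40 and benzonase, followed by ultracentrifugation. Proteins were quantified by TMT10 LC-MS/MS; the value is the NP40-soluble abundance relative to the NP40-processed vehicle, from 3 independent experiments.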
compound,measurement,setting,value
Nc1nc2c(ncn2[C@@H]2O[C@H](COP(=O)(O)OP(=O)(O)OP(=O)(O)O)[C@@H](O)[C@H]2O)c(=O)[nH]1 [guanosine triphosphate],NP40-soluble protein abundance,concentration: 0.1mM,1.06 ± 0.054
same,NP40-soluble protein abundance,concentration: 0.5mM,1 ± 0.073
same,NP40-soluble protein abundance,concentration: 1mM,0.962 ± 0.07
same,NP40-soluble protein abundance,concentration: 2mM,0.918 ± 0.14
same,NP40-soluble protein abundance,concentration: 4mM,0.984 ± 0.18
same,NP40-soluble protein abundance,concentration: 6mM,0.88 ± 0.099
same,NP40-soluble protein abundance,concentration: 8mM,0.856 ± 0.12
same,NP40-soluble protein abundance,concentration: 10mM,0.857 ± 0.18
